# At least one compound was matched to its structure with a doubt left.
# Tested on: BRAFV600E human melanoma A375 cells
# Assay: A375 human melanoma xenograft in 8HUM_Rag2-/- mice, tumour volume under daily oral treatment
# Assay type: in vivo
# Settings: adult female 8HUM_Rag2-/- mice
structure (smiles),measurement,setting,value
CC(=O)Nc1cccc(-n2c(=O)n(C3CC3)c(=O)c3c(Nc4ccc(I)cc4F)n(C)c(=O)c(C)c32)c1 [trametinib],tumour re-growth after treatment was discontinued,"A375 xenograft, treatment stopped d30, followed to d48",tumours began to regrow in the absence of treatment
same,mean tumour volume of A375 xenograft (one flank),"n=3 or 4, 0.35 mg/kg daily p.o. from d22 to d30, versus vehicle",regressed to the point where they were essentially undetectable

# From patent US20260076346A1, “IMMUNODEFICIENT NON-HUMAN ANIMALS FOR ASSESSING DRUG METABOLISM AND TOXICITY” (UNIVERSITY OF DUNDEE, priority 2022, published 2026)
